Data as given in PubChem BioAssay AID504804 (Drosophila RNAi Screening Center, 2011)
The deposit covers about 19,000 reagents; this is a random part of those that have a named target and a result. Over the whole deposit, 47 (0.25%) got an active call. 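Signals are raw, not normalised; exact z-scores behind calls not deposited; actives needed confirmation, so some wells reaching 2 SD are inactive.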 Unmarked entries are inactive. Reagent sequences are not shown.

- Test: 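Knock-downs shielding fly cells from apoptosis caused by DNA damage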 (primary screen)
- Cell system: Drosophila Kc cells
- Reagents: long dsRNA against Drosophila genes, 0.5 µg dsRNA per well
- Time to read-out: 96 h (48 h knock-down, then 48 h drug)
- Treatment: doxorubicin 5 µg/ml for 48 h, added 48 h after dsRNA
- Measurement: 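Luminescent ATP counts per replicate, not normalised, reflecting viable cells after 48 h dsRNA knock-down followed by 48 h of 5 µg/ml doxorubicin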
- Scale: raw ATP luminescence: higher = more viable cells, protection from doxorubicin
- Call rule: 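z-score of 2 or more over plate mean in both duplicates, retained only when retests and separate dsRNAs confirm the protection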

Depletion of CG5937 [DRSC18392] resulted in: raw ATP luminescence, replicate 1 = 55960; raw ATP luminescence, replicate 2 = 54020. Met (Methoprene-tolerant) [DRSC20284] gave raw ATP luminescence, replicate 1 = 3.48e5; raw ATP luminescence, replicate 2 = 3.09e5. After knock-down of CG16853 [DRSC01877], the record shows raw ATP luminescence, replicate 1 = 74877; raw ATP luminescence, replicate 2 = 77163. Psf2 (Partner of Sld Five 2) [DRSC00516] showed raw ATP luminescence, replicate 1 = 18557; raw ATP luminescence, replicate 2 = 19690. With knock-down of rho-6 (rhomboid-6) [DRSC02588], the screen gave raw ATP luminescence, replicate 1 = 72813; raw ATP luminescence, replicate 2 = 78517. Knock-down of CG34452 [DRSC09387] came out at: raw ATP luminescence, replicate 1 = 77217; raw ATP luminescence, replicate 2 = 89450.

Silencing of Tmtc2 (Transmembrane O-mannosyltransferase targeting cadherins 2) [DRSC00272] resulted in: raw ATP luminescence, replicate 1 = 1.06e5; raw ATP luminescence, replicate 2 = 69653. Silencing of CSN7 (COP9 signalosome subunit 7) [DRSC06807] resulted in: raw ATP luminescence, replicate 1 = 71047; raw ATP luminescence, replicate 2 = 49453. Against CSN7 (COP9 signalosome subunit 7) [DRSC06808] the deposit lists raw ATP luminescence, replicate 1 = 76937; raw ATP luminescence, replicate 2 = 79737. Knock-down of Spn75F (Serpin 75F) [DRSC09589] resulted in: raw ATP luminescence, replicate 1 = 58783; raw ATP luminescence, replicate 2 = 60867. TkR99D (Tachykinin-like receptor at 99D) [DRSC16881] showed raw ATP luminescence, replicate 1 = 62400; raw ATP luminescence, replicate 2 = 65770. Against Neto (Neuropilin and tolloid-like) [DRSC18982], the entry reads raw ATP luminescence, replicate 1 = 2.37e5; raw ATP luminescence, replicate 2 = 2.46e5.

For Neto (Neuropilin and tolloid-like) [DRSC19716] the deposit lists raw ATP luminescence, replicate 1 = 3.97e5; raw ATP luminescence, replicate 2 = 3.17e5. Neto (Neuropilin and tolloid-like) [DRSC19717] scored raw ATP luminescence, replicate 1 = 3.37e5; raw ATP luminescence, replicate 2 = 3.77e5. Silencing of Vti1a (Vesicle transport through interaction with t-SNAREs 1a) [DRSC08563] came out at: raw ATP luminescence, replicate 1 = 80917; raw ATP luminescence, replicate 2 = 64710. After knock-down of firl (firelighter) [DRSC02428], the screen gave raw ATP luminescence, replicate 1 = 72383; raw ATP luminescence, replicate 2 = 74813. Su(Tpl) (Suppressor of Triplolethal) [DRSC10954] gave raw ATP luminescence, replicate 1 = 22883; raw ATP luminescence, replicate 2 = 24067. Against CG33235 [DRSC19641], the values are raw ATP luminescence, replicate 1 = 3.38e5; raw ATP luminescence, replicate 2 = 3.29e5.

Knock-down of GluProRS (Glutamyl-prolyl-tRNA synthetase) [DRSC14095] gave: raw ATP luminescence, replicate 1 = 63267; raw ATP luminescence, replicate 2 = 43630. After knock-down of Mal-A5 (Maltase A5) [DRSC07232], the screen gave raw ATP luminescence, replicate 1 = 72570; raw ATP luminescence, replicate 2 = 66047. For Klp68D (Kinesin-like protein at 68D) [DRSC11206] the deposit lists raw ATP luminescence, replicate 1 = 53970; raw ATP luminescence, replicate 2 = 36690. Gr43a (Gustatory receptor 43a) [DRSC06658] gave raw ATP luminescence, replicate 1 = 58413; raw ATP luminescence, replicate 2 = 77143. l(2)34Fc (lethal (2) 34Fc) [DRSC01910] gave raw ATP luminescence, replicate 1 = 52877; raw ATP luminescence, replicate 2 = 64543. Knock-down of AdamTS-B (ADAM metallopeptidase with thrombospondin type 1 motif B) [DRSC18346] resulted in: raw ATP luminescence, replicate 1 = 44040; raw ATP luminescence, replicate 2 = 51150.

Knock-down of CG4286 [DRSC04459] came out at: raw ATP luminescence, replicate 1 = 51153; raw ATP luminescence, replicate 2 = 44630. For blow (blown fuse) [DRSC07586], the entry reads raw ATP luminescence, replicate 1 = 84247; raw ATP luminescence, replicate 2 = 58320. After knock-down of C3G (C3G guanyl-nucleotide exchange factor) [DRSC17745], the record shows raw ATP luminescence, replicate 1 = 41010; raw ATP luminescence, replicate 2 = 53280. C3G (C3G guanyl-nucleotide exchange factor) [DRSC17929] scored raw ATP luminescence, replicate 1 = 45470; raw ATP luminescence, replicate 2 = 56700. Depletion of aurB (aurora B) [DRSC03548] resulted in: raw ATP luminescence, replicate 1 = 98307; raw ATP luminescence, replicate 2 = 61467. st (scarlet) [DRSC11399] gave raw ATP luminescence, replicate 1 = 26443; raw ATP luminescence, replicate 2 = 26947.

Silencing of CheA7a (Chemosensory protein A 7a) [DRSC17965] gave: raw ATP luminescence, replicate 1 = 58410; raw ATP luminescence, replicate 2 = 69270. For Odc2 (Ornithine decarboxylase 2) [DRSC07483], the values are raw ATP luminescence, replicate 1 = 40587; raw ATP luminescence, replicate 2 = 77200. Knock-down of CG5721 [DRSC06945] resulted in: raw ATP luminescence, replicate 1 = 51560; raw ATP luminescence, replicate 2 = 61897. nonA (no on or off transient A) [DRSC20357] scored raw ATP luminescence, replicate 1 = 2.55e5; raw ATP luminescence, replicate 2 = 2.35e5. CG14568 [DRSC11729] gave raw ATP luminescence, replicate 1 = 47107; raw ATP luminescence, replicate 2 = 70833. For SP1173 [DRSC11277] the deposit lists raw ATP luminescence, replicate 1 = 29937; raw ATP luminescence, replicate 2 = 40680.

As entered above.
CG33235 [DRSC19641], raw ATP luminescence, replicate 1: 3.38e5
l(2)34Fc (lethal (2) 34Fc) [DRSC01910], raw ATP luminescence, replicate 2 = 64543
